We go through 15 molecules from patent publication US20240024520A1, “AUTONOMOUS KNOB DOMAIN PEPTIDES” (UCB BIOPHARMA SRL, priority 2020, published 2024).

The chains behind the UniProt entries cited, without tags or fusion partners. Residues count along the entry.
UniProt P08650, residues 19-1681: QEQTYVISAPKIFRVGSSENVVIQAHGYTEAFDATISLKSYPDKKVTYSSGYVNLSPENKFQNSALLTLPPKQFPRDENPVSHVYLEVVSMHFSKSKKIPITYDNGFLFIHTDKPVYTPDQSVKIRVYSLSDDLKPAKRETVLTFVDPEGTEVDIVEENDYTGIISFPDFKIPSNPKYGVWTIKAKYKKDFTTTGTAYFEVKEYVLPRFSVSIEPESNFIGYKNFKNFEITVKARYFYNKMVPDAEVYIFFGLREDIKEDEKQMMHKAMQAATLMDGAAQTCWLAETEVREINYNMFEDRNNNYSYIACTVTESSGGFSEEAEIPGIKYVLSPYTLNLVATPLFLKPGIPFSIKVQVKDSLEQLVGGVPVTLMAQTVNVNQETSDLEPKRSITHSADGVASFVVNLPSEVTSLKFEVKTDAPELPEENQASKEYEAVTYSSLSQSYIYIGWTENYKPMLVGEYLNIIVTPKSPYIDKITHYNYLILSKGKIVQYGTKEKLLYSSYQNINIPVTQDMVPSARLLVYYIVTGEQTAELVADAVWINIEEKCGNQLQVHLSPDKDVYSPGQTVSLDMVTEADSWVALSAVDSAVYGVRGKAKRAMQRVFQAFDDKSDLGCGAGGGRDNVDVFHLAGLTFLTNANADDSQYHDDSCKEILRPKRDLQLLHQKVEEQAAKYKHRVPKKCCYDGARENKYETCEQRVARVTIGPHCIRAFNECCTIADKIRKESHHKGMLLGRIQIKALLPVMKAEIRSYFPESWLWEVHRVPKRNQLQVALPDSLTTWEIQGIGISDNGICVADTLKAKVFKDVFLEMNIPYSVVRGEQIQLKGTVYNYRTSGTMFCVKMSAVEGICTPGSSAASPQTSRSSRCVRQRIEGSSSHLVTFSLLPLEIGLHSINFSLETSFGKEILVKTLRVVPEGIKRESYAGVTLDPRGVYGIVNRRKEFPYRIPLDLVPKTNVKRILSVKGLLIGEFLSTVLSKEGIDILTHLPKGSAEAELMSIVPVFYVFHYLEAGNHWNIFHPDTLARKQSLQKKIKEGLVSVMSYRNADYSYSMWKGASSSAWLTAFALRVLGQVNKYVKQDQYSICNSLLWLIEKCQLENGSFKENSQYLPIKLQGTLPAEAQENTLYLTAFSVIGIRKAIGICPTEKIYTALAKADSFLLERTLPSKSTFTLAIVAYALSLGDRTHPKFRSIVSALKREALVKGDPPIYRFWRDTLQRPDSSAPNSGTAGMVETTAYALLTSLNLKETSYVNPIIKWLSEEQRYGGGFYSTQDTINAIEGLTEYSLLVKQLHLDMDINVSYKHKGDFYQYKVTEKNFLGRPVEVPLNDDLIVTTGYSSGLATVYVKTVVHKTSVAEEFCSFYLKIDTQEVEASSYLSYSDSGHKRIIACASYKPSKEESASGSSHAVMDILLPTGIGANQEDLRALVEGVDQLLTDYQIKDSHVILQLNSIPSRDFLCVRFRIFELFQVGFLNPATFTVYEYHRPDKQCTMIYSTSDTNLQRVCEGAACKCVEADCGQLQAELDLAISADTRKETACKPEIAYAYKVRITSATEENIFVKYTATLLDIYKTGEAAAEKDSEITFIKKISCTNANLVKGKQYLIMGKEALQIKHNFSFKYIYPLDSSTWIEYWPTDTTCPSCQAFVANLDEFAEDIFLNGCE

Assay [1] deals with rat C5 (Rattus norvegicus (rat)) (UniProt P08650). Nature of the assay: monoclonal phage ELISA.
For assay [2] the target is unchanged. Put plainly: told with the rat pharmacokinetics.
Assay [3] shares this target. Put plainly: SPR multi-cycle kinetics, rat C5 immobilised.

Where a chain is given by its changes, count along the chain named. Results are given in words; binding and its absence hold for the method and conditions named. Some results given as binding are weak or reduced against the parent protein; the word gives no strength.

B1: ultralong CDR-H3 of SEQ ID NO: 522 displayed on M13 phage (protein, not shown: large carriers)
chain: TTVHQRTKKTCPLGYAINDRCDDLKTCGPDECCLNGVVNAYGICEYEGESATHTYEWYVD
As to B1, the binding entry in assay [1] is recorded as “binds”.

B2: ultralong CDR-H3 of SEQ ID NO: 557 displayed on M13 phage (protein, not shown: large carriers)
chain: B1 chain with Q5L, R6K, T10S
Take B2: the binding entry in assay [1] is “binds”.

B3: ultralong CDR-H3 of SEQ ID NO: 558 displayed on M13 phage (protein, not shown: large carriers)
chain: B1 chain with R6K, T10S, W57L, D60E
Consider B3, for which the binding entry in assay [1] is “binds”.

B4: ultralong CDR-H3 of SEQ ID NO: 527 displayed on M13 phage (protein, not shown: large carriers)
chain: TTVHQKTNRQESCPGSSGDRTICERSWSCGGYHCSAYDTWGAGGSSDCGTCTYTYTYEWYVD
On to B4, for which the binding result in assay [1] is “binds”.

B5: ultralong CDR-H3 of SEQ ID NO: 526 displayed on M13 phage (protein, not shown: large carriers)
chain: TTVHQRTLKNRNCPDGYGYQRHCTVGEDCTEGCCDNYGRCTTYTDTYTYELYVE
Regarding B5, the binding entry in assay [1] is listed as “binds”.

B6: ultralong CDR-H3 of SEQ ID NO: 525 displayed on M13 phage (protein, not shown: large carriers)
chain: TTVVQKTQKSEALCPDGYTRSGRPGCYYGCPDSTCCSRTRTLHVSEHCIAPAYTYNYEWYVD
Consider B6, for which the binding result in assay [1] is reported as “binds”.

B7: ultralong CDR-H3 of SEQ ID NO: 552 displayed on M13 phage (protein, not shown: large carriers)
chain: TTVHQRTKEERTCPSGCSWFSGCWDTYRCGPSVCCRDGRYGCAAIICRDTYEWYVD
Consider B7, for which the binding result in assay [1] was “binds”.

B8: ultralong CDR-H3 of SEQ ID NO: 553 displayed on M13 phage (protein, not shown: large carriers)
chain: TTVHQKTKKTCPRGYHYNDRCEFFNTCRVEECCLNGVVNTYGICEYEGGSATYTYEWYVD
For the molecule B8, the binding result in assay [1] is listed as “binds”.

B9: ultralong CDR-H3 of SEQ ID NO: 554 displayed on M13 phage (protein, not shown: large carriers)
chain: B8 chain with E22D
B9: the binding result in assay [1] is “binds”.

B10: ultralong CDR-H3 of SEQ ID NO: 555 displayed on M13 phage (protein, not shown: large carriers)
chain: B8 chain
B10: the binding entry in assay [1] is “binds”.

B11: ultralong CDR-H3 of SEQ ID NO: 556 displayed on M13 phage (protein, not shown: large carriers)
chain: TTVHQKTTRVNSCPDGYGYGDGYCYDSGCSASDCYGVDALYSYGHCGCSIYTERPRYEWYVD
As for B11, the binding result in assay [1] is recorded as “binds”.

B12: K8 knob domain peptide, chemically synthesised, free energy method (peptide)
peptide: VCPDGFNWGYGCAAGSSRFCTRHDWCCYDERADSHTYGFCTGNRV
Turning to B12, the binding entry in assay [2] and in assay [3] was “binds” in each case.

B13: ultralong CDR-H3 of SEQ ID NO: 521 displayed on M13 phage (protein, not shown: large carriers)
chain: TTVHQKTKKTCPLGYNLNDRCDHFNTCRVEKCCQNGVVNAYGICEYAGGNATYTYQWYVH
On to B13, for which the binding result in assay [1] is “binds”.

B14: ultralong CDR-H3 of SEQ ID NO: 528 displayed on M13 phage (protein, not shown: large carriers)
chain: B13 chain with K6R, N16D, K31E, Q34K, N50S, Q56K, H60D
On to B14, for which, in assay [1], the binding entry is “binds”.

B15: ultralong CDR-H3 of SEQ ID NO: 523 displayed on M13 phage (protein, not shown: large carriers)
chain: TTVHQKTEPSCPYGYIYTGGCHTTYGCGNYVCYPGSGPPRVGDVSVSYTYEWYVD
Turning to B15, in assay [1], the binding entry was “binds”.
